# Assay results as given in article PMC6925144, “A prospective compound screening contest identified broader inhibitors for Sirtuin 1” (Scientific Reports, 2019).
# Amino acid sequences for entries named in this document (tags omitted). Residues count along the entry.
# UniProt Q96EB6, 2-747 limits assumed: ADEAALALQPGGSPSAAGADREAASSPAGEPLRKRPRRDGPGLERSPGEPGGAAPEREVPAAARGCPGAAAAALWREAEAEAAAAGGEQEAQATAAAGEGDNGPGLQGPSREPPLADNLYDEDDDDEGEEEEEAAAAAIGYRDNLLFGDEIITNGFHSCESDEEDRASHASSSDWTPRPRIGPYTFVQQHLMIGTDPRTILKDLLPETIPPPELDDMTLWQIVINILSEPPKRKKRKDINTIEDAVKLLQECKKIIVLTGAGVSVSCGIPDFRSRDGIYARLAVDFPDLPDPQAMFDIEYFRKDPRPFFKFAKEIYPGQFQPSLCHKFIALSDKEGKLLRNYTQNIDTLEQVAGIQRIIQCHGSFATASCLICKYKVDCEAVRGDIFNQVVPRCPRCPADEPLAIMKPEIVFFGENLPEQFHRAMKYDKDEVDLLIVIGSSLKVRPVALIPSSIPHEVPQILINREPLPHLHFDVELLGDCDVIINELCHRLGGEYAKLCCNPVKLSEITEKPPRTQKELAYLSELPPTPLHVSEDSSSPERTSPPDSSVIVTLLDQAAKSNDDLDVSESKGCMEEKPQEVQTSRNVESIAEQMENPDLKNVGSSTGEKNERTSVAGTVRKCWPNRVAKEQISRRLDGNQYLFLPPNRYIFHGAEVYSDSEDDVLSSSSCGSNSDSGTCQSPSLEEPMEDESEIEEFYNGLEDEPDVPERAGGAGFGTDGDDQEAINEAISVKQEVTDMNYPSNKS
# In all, about 3,200 compounds were measured (“TSA(without NAD+) / Primary screening (TSA) / delta Tm (K)”: median about -0.07, highest 2% from about 0.37 on). The list shows a part of the results.
# Biological target: NAD-dependent deacetylase Sirtuin 1 (human, UniProt Q96EB6)
# Assay: primary screen, delta tm
# Set-up: single well (n = 1)
# Conditions: 10 µM
# In short: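 Thermal shift of Sirtuin 1 measured without NAD+, compound at 10 µM (n = 1); value is ΔTm, with hits defined as ΔTm > 0.45 K or < −1.5 K. Hits retested at 5, 10, 20 µM (n = 4) and counterscreened on bovine carbonic anhydrase and ABL1 SH2 domain.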
row,Compound,TSA(without NAD+) / Primary screening (TSA) / delta Tm (K)
1,Cc1ccc(F)cc1C(=O)OCc1nc(C(C)C)ns1,-0.24
2,CNC(=O)CSc1nnc(-c2c[nH]c3ccccc23)n1Cc1ccco1,-0.08
3,O=C(NCc1ccc(S(=O)(=O)N2CCOCC2)s1)C1=COCCO1,-0.04
4,Cc1nc(C(=O)Nc2ccc(-c3cn4ccsc4n3)cc2)cs1,-0.18
5,COc1ccc(N(C)S(=O)(=O)c2cccc(C(=O)OCc3cc(=O)oc4cc(C)ccc34)c2)cc1,0.05
6,OC1CCN(c2ncnc3c2oc2ccccc23)CC1,0.08
7,Cn1ccnc1C(NC(=O)Cc1ccc(F)cc1)c1ccccc1F (stereo not drawn),-0.08
8,CC1CN(S(=O)(=O)CCNC(=O)Nc2cc3c(cc2Cl)OCCO3)CC(C)O1 (stereo not drawn),-0.17
9,O=C(CC12CC3CC(CC(O)(C3)C1)C2)Nc1cccc2c1CCCC2,-0.08
10,C[C@@H]1C[C@H]1N,-0.13
11,COCC(O)CN (stereo not drawn),-0.07
12,CC(=O)Nc1cc2ccccc2cc1C(=O)NC1CCOc2ccccc21 (stereo not drawn),-0.12
13,Cc1ccc(-c2nn(-c3ccccc3)cc2C(=O)NCc2nnc3ccccn23)cc1,-0.03
14,O=C(CCc1ccc2c(c1)OCO2)N1CCc2[nH]c3ccccc3c2C1,-0.15
15,CCN(C(=O)CSc1nnc(-c2ccc3c(c2)OCO3)o1)C1CCS(=O)(=O)C1 (stereo not drawn),-0.23
16,C=CCCCN,0.06
17,Cc1cc(NN)n2nc(C(F)(F)F)c(-c3ccc(Cl)cc3)c2n1,0.26
18,O=C(c1ccc2[nH]c3c(c2c1)CCCC3)N1CC1,-0.22
19,O=C(O)CCCNc1ncnc2sc3c(c12)CCCC3,-0.07
20,CCN(C(=O)CSc1nnc(SCc2ccc(Cl)cc2)s1)C1CCS(=O)(=O)C1 (stereo not drawn),-0.08
21,COc1c(C=C2C(=O)NC(=S)NC2=O)ccc2ccccc12,-0.43
22,Cc1nn2cccnc2c1C(=O)NCC1CC12CCc1ccccc12 (stereo not drawn),-0.22
23,CN(C)S(=O)(=O)c1ccc(C(=O)C2=C(O)C(=O)N(CCN3CCOCC3)C2c2ccco2)cc1 (stereo not drawn),-0.14

# Of the compounds above, these contain nitrogen in an aromatic ring:
row,Compound,TSA(without NAD+) / Primary screening (TSA) / delta Tm (K)
1,Cc1ccc(F)cc1C(=O)OCc1nc(C(C)C)ns1,-0.24
2,CNC(=O)CSc1nnc(-c2c[nH]c3ccccc23)n1Cc1ccco1,-0.08
4,Cc1nc(C(=O)Nc2ccc(-c3cn4ccsc4n3)cc2)cs1,-0.18
6,OC1CCN(c2ncnc3c2oc2ccccc23)CC1,0.08
7,Cn1ccnc1C(NC(=O)Cc1ccc(F)cc1)c1ccccc1F (stereo not drawn),-0.08
13,Cc1ccc(-c2nn(-c3ccccc3)cc2C(=O)NCc2nnc3ccccn23)cc1,-0.03
14,O=C(CCc1ccc2c(c1)OCO2)N1CCc2[nH]c3ccccc3c2C1,-0.15
15,CCN(C(=O)CSc1nnc(-c2ccc3c(c2)OCO3)o1)C1CCS(=O)(=O)C1 (stereo not drawn),-0.23
17,Cc1cc(NN)n2nc(C(F)(F)F)c(-c3ccc(Cl)cc3)c2n1,0.26
18,O=C(c1ccc2[nH]c3c(c2c1)CCCC3)N1CC1,-0.22
19,O=C(O)CCCNc1ncnc2sc3c(c12)CCCC3,-0.07
20,CCN(C(=O)CSc1nnc(SCc2ccc(Cl)cc2)s1)C1CCS(=O)(=O)C1 (stereo not drawn),-0.08
22,Cc1nn2cccnc2c1C(=O)NCC1CC12CCc1ccccc12 (stereo not drawn),-0.22

# Further structures follow:

row,Compound,TSA(without NAD+) / Primary screening (TSA) / delta Tm (K)
1,CC(NC(=O)c1occc1-c1ccc(F)cc1)c1ccc2c(c1)CCC(=O)N2 (stereo not drawn),-0.34
2,Cc1cc(C)c2cc(C(=O)N3CCC(C(N)=O)CC3)[nH]c2c1,-0.43
3,CC1CCc2ccccc2N1C(=O)CSc1n[nH]c2nc3ccccc3n12 (stereo not drawn),-0.02
4,Oc1ccc2ccccc2c1/C=N/c1ccc(F)c(F)c1,0.08
5,CCS(=O)(=O)Nc1ccc(S(=O)(=O)Nc2nccs2)c(OC)c1,-0.18
6,CC(=O)NC1CCCN(c2nc3ccccc3cc2CO)C1 (stereo not drawn),-0.05
7,COc1cccc(C2C(C(=O)/C=C/c3ccco3)=C(O)C(=O)N2CCCN2CCOCC2)c1 (stereo not drawn),-0.07
8,Oc1cnc2ccccc2c1,-0.18
9,Cc1ccc(COC(=O)c2cccc3c2C(=O)c2ccccc2C3=O)cc1,0.27
10,O=C(/C=C/c1ccccc1)C1=C(O)C(=O)N(CCCN2CCOCC2)C1c1ccc(Cl)cc1 (stereo not drawn),0.12
11,CCOC(=O)C1=C(C)NC(C)=C(C(=O)OCC)C1c1nc2ccccc2[nH]1,-0.13
12,Cc1nc(N2CCN(CC3CCCO3)CC2)c2c(-c3ccccc3)csc2n1 (stereo not drawn),-0.05
13,Cc1ccc(C(=O)NNC(=O)c2cccc(S(=O)(=O)N(C)c3ccc(C)cc3)c2)cc1,-0.14
14,O=C(NCc1nnc2n1-c1ccccc1CC2)c1ccc2ccccc2c1,0.02
15,Cc1ccc2[nH]c(C(=O)O)c(C)c2c1,-0.11
16,Cc1c(C(=O)NCc2nnc3n2CCC3)oc2ccc(Cl)cc12,0.27
17,Cc1ccc(S(=O)(=O)Nc2ccc(F)cc2)cc1C(=O)NCc1cccc(NC(=O)C2CC2)c1,0.08
18,O=C(CCc1nc2ccccc2c(=O)[nH]1)Nc1ccc(N2CCN(Cc3ccccc3)CC2)cc1,-0.12
19,CCCCn1ccnc1C(=O)c1cccc(S(=O)(=O)N(C)c2ccccc2)c1,-0.02
20,CC(C)(C)OC(=O)N1CCCCC1CNc1cnc2ccccc2n1 (stereo not drawn),-0.04
21,O=C(O)CCCCCN1C(=O)/C(=C/c2cccc3ccccc23)SC1=S,-0.03
22,NC(=O)C1CCN(Cc2nc3cc(Cl)ccc3c(=O)[nH]2)CC1,0.02
23,CN(Cc1nc2ccccc2s1)C(=O)CSc1nnc(-c2cccnc2)n1C1CC1,0.29

row,Compound,TSA(without NAD+) / Primary screening (TSA) / delta Tm (K)
1,Cc1ccc(C23CC4CC(CC(C(=O)OCC(=O)Nc5ccc6c(c5)OCO6)(C4)C2)C3)cc1,0.36
2,CN(C(=O)CSc1ncnc2c1cnn2C)C1CCCc2ccccc21 (stereo not drawn),-0.04
3,O=c1c2ccccc2n2c(SCc3nnc(-c4cccs4)o3)nnc2n1-c1ccccc1,-0.08
4,Cc1ccc(CCNC(=O)CNC(=O)c2cc3ccccc3[nH]2)cn1,0.17
5,CC(=O)c1cc(Cl)ccc1OCc1cc(=O)n2ccccc2n1,0.05
6,CC(C)(N)CCN,-0.14
7,NC(=O)C1CCN(C(=O)/C=C/c2ccc(-c3ccccc3F)o2)C1 (stereo not drawn),-0.12
8,COc1ccc(C2C(C(=O)c3ccc(OC)c(OC)c3)=C(O)C(=O)N2CCCN2CCOCC2)cc1 (stereo not drawn),-0.05
9,CCOC(=O)CN(Cc1ccccc1)Cc1cc(=O)c(OC)co1,-0.13
10,O=C([O-])COCCO,-0.27
11,NC(=O)c1cc(NC(=O)CN2CCN(c3ccccc3O)CC2)cc(C(N)=O)c1,0.07
12,N#CC(C(=O)c1ccc(NS(=O)(=O)c2ccccc2)cc1)c1nc(-c2ccccn2)cs1 (stereo not drawn),0.46
13,CN1C(=O)N(CC(=O)O)C(=O)C12CCCCC2,-0.02
14,CN(C)/C=N/c1ncnc2c1cnn2-c1ccccc1,-0.04
15,Cc1ccc(C(=O)N2CCC(C(=O)Nc3ccccc3)CC2)cc1S(=O)(=O)NCc1ccccc1,-0.02
16,CC(NC(=O)COC(=O)c1cccc(S(=O)(=O)NCc2ccccc2)c1)C12CC3CC(CC(C3)C1)C2 (stereo not drawn),-0.08
17,CC(C)COc1ccc(C(=O)C2=C(O)C(=O)N(CCN3CCOCC3)C2c2ccncc2)cc1 (stereo not drawn),-0.03
18,N#Cc1cc(O)cc(C(=O)OCC(=O)NC2(C#N)CCCCC2)c1,-0.08
19,Cc1ccc(N(C)S(=O)(=O)c2cccc(C(=O)Nc3sc4c(c3C(N)=O)CCCC4)c2)cc1,-0.12
20,Cc1ccc(C(=O)N(C)C)cc1OC(=O)c1ccc2[nH]c(C(F)F)nc2c1,0.18
21,Cc1ccc(C(=O)NCC(=O)N2CC=C(c3c[nH]c4cc(F)ccc34)CC2)s1,0.07
22,Cc1cc(CN2CCN(S(=O)(=O)c3cc(C(N)=O)n(C)c3)CC2)on1,-0.13
23,COc1ccc(NN=C2C(=O)NC(=S)NC2=O)cc1,-0.21

row,Compound,TSA(without NAD+) / Primary screening (TSA) / delta Tm (K)
1,Nc1ncnc2c1ncn2[C@@H]1O[C@H](CO)[C@@H](O)[C@H]1O,-0.13
2,CCc1cc(C(=O)Nc2cc(C(N)=O)ccc2N2CCCC2)sc1C,-0.04
3,Cc1cccc(CN2CCN(C(=O)COC(=O)c3ccc(C(N)=O)cc3)CC2)c1,-0.02
4,CC(=O)Nc1ccc(NCc2nnc3n(C)c(=O)c4ccccc4n23)cc1,-0.07
5,O=C(CSc1nnc(NCc2ccco2)s1)N1CCN(C/C=C/c2ccccc2)CC1,0.02
6,COc1ccc(OC)c(N(CC(=O)NN=C2CCC(C(C)(C)C)CC2)S(=O)(=O)c2ccc(OC)c(OC)c2)c1 (stereo not drawn),0.09
7,COc1ccc(N(C)S(=O)(=O)c2cccc(C(=O)OCCN3C(=O)c4ccccc4C3=O)c2)cc1,-0.13
8,O=C(Nc1cccc(S(=O)(=O)N2CCOCC2)c1)c1cn(-c2ccccc2)nc1-c1ccccc1,-0.02
9,CCc1cc(O)nc(Cn2c(N)nc(C#N)c2C#N)n1,-0.21
10,O=C1NC(=S)NC(=O)C1=Cc1cn(-c2ccccc2)nc1-c1cc2ccccc2oc1=O,-0.18
11,CC(NCC(=O)NCC(=O)Nc1ccc(F)cc1)c1cccs1 (stereo not drawn),-0.08
12,COc1ccc(NC(=O)c2ccccc2NC(=O)COC(=O)C23CC4CC(CC(O)(C4)C2)C3)cc1,0.19
13,CCN1CCN(Cc2ccc(CNC(=O)OCC(F)(F)F)cc2)CC1,-0.01
14,COc1ncnc2c1CN(Cc1nc(-c3ccccc3)oc1C)CC2,-0.01
15,COCCOc1cccc(Br)c1,-0.04
16,Nc1nsc(N2CCN(c3nc(C4CC4)nc4sc5c(c34)CCCC5)CC2)n1,-0.07
17,COc1ccc(-c2nnc(S)n2CC(=O)Nc2ccc(C(N)=O)cc2)cc1,-0.01
18,O=C(COC(=O)c1cc(-c2ccc(Cl)cc2)nc2ccccc12)NNC(=O)c1cccs1,-0.01
19,COc1ccc2c(C=C3C(=O)NC(=S)NC3=O)cccc2c1,-0.22
20,O=C(Cn1[nH]c(=O)c2ccccc2c1=O)Nc1ccc(N2CCN(Cc3ccccc3)CC2)cc1,0.02
21,CCCCn1nnnc1COC(=O)c1cccc(S(=O)(=O)N(C)c2ccc(OC)cc2)c1,-0.02

# An excerpt of these results, as tab-separated lines.
row	Compound	TSA(without NAD+) / Primary screening (TSA) / delta Tm (K)
3	Cc1cccc(CN2CCN(C(=O)COC(=O)c3ccc(C(N)=O)cc3)CC2)c1	-0.02
4	CC(=O)Nc1ccc(NCc2nnc3n(C)c(=O)c4ccccc4n23)cc1	-0.07
